# In patent US20140038203A1, “METHODS FOR DETECTING OR PREDICTING KIDNEY DISEASE” (MUSC FOUNDATION FOR RESEARCH DEVELOPMENT, priority 2012, published 2014):
# B1: Keratin, type I cytoskeletal 10 (protein, UniProt P13645 1-584, looked up)
# Keratin, type I cytoskeletal …: MSVRYSSSKHYSSSRSGGGGGGGGCGGGGGVSSLRISSSKGSLGGGFSSGGFSGGSFSRGSSGGGCFGGSSGGYGGLGGFGGGSFRGSYGSSSFGGSYGGIFGGGSFGGGSFGGGSFGGGGFGGGGFGGGFGGGFGGDGGLLSGNEKVTMQNLNDRLASYLDKVRALEESNYELEGKIKEWYEKHGNSHQGEPRDYSKYYKTIDDLKNQILNLTTDNANILLQIDNARLAADDFRLKYENEVALRQSVEADINGLRRVLDELTLTKADLEMQIESLTEELAYLKKNHEEEMKDLRNVSTGDVNVEMNAAPGVDLTQLLNNMRSQYEQLAEQNRKDAEAWFNEKSKELTTEIDNNIEQISSYKSEITELRRNVQALEIELQSQLALKQSLEASLAETEGRYCVQLSQIQAQISALEEQLQQIRAETECQNTEYQQLLDIKIRLENEIQTYRSLLEGEGSSGGGGRGGGSFGGGYGGGSSGGGSSGGGHGGGHGGSSGGGYGGGSSGGGSSGGGYGGGSSSGGHGGSSSGGYGGGSSGGGGGGYGGGSSGGGSSSGGGYGGGSSSGGHKSSSSGSVGESSSKGPRY
# B2: Keratin, type I cytoskeletal 9 (protein, UniProt P35527 1-623, looked up)
# Keratin, type I cytoskeletal 9: MSCRQFSSSYLSRSGGGGGGGLGSGGSIRSSYSRFSSSGGGGGGGRFSSSSGYGGGSSRVCGRGGGGSFGYSYGGGSGGGFSASSLGGGFGGGSRGFGGASGGGYSSSGGFGGGFGGGSGGGFGGGYGSGFGGFGGFGGGAGGGDGGILTANEKSTMQELNSRLASYLDKVQALEEANNDLENKIQDWYDKKGPAAIQKNYSPYYNTIDDLKDQIVDLTVGNNKTLLDIDNTRMTLDDFRIKFEMEQNLRQGVDADINGLRQVLDNLTMEKSDLEMQYETLQEELMALKKNHKEEMSQLTGQNSGDVNVEINVAPGKDLTKTLNDMRQEYEQLIAKNRKDIENQYETQITQIEHEVSSSGQEVQSSAKEVTQLRHGVQELEIELQSQLSKKAALEKSLEDTKNRYCGQLQMIQEQISNLEAQITDVRQEIECQNQEYSLLLSIKMRLEKEIETYHNLLEGGQEDFESSGAGKIGLGGRGGSGGSYGRGSRGGSGGSYGGGGSGGGYGGGSGSRGGSGGSYGGGSGSGGGSGGGYGGGSGGGHSGGSGGGHSGGSGGNYGGGSGSGGGSGGGYGGGSGSRGGSGGSHGGGSGFGGESGGSYGGGEEASGSGGGYGGGSGKSSHS
# B3: Keratin, type I cytoskeletal 14 (protein, UniProt P02533 1-472, looked up)
# Keratin, type I cytoskeletal …: MTTCSRQFTSSSSMKGSCGIGGGIGGGSSRISSVLAGGSCRAPSTYGGGLSVSSSRFSSGGACGLGGGYGGGFSSSSSSFGSGFGGGYGGGLGAGLGGGFGGGFAGGDGLLVGSEKVTMQNLNDRLASYLDKVRALEEANADLEVKIRDWYQRQRPAEIKDYSPYFKTIEDLRNKILTATVDNANVLLQIDNARLAADDFRTKYETELNLRMSVEADINGLRRVLDELTLARADLEMQIESLKEELAYLKKNHEEEMNALRGQVGGDVNVEMDAAPGVDLSRILNEMRDQYEKMAEKNRKDAEEWFFTKTEELNREVATNSELVQSGKSEISELRRTMQNLEIELQSQLSMKASLENSLEETKGRYCMQLAQIQEMIGSVEEQLAQLRCEMEQQNQEYKILLDVKTRLEQEIATYRRLLEGEDAHLSSSQFSSGSQSSRDVTSSSRQIRTKVMDVHDGKVVSTHEQVLRTKN
# B4: Collagen alpha-1(XV) chain (protein, UniProt P39059 28-1388, looked up)
# Collagen alpha-1(XV) chain: QTRGATETASQGHLDLTQLIGVPLPSSVSFVTGYGGFPAYSFGPGANVGRPARTLIPSTFFRDFAISVVVKPSSTRGGVLFAITDAFQKVIYLGLRLSGVEDGHQRIILYYTEPGSHVSQEAAAFSVPVMTHRWNRFAMIVQGEEVTLLVNCEEHSRIPFQRSSQALAFESSAGIFMGNAGATGLERFTGSLQQLTVHPDPRTPEELCDPEESSASGETSGLQEADGVAEILEAVTYTQASPKEAKVEPINTPPTPSSPFEDMELSGEPVPEGTLETTNMSIIQHSSPKQGSGEILNDTLEGVHSVDGDPITDSGSGAGAFLDIAEEKNLAATAAGLAEVPISTAGEAEASSVPTGGPTLSMSTENPEEGVTPGPDNEERLAATAAGEAEALASMPGEVEASGVAPGELDLSMSAQSLGEEATVGPSSEDSLTTAAAATEVSLSTFEDEEASGVPTDGLAPLTATMAPERAVTSGPGDEEDLAAATTEEPLITAGGEESGSPPPDGPPLPLPTVAPERWITPAQREHVGMKGQAGPKGEKGDAGEELPGPPEPSGPVGPTAGAEAEGSGLGWGSDVGSGSGDLVGSEQLLRGPPGPPGPPGLPGIPGKPGTDVFMGPPGSPGEDGPAGEPGPPGPEGQPGVDGATGLPGMKGEKGARGPNGSVGEKGDPGNRGLPGPPGKKGQAGPPGVMGPPGPPGPPGPPGPGCTMGLGFEDTEGSGSTQLLNEPKLSRPTAAIGLKGEKGDRGPKGERGMDGASIVGPPGPRGPPGHIKVLSNSLINITHGFMNFSDIPELVGPPGPDGLPGLPGFPGPRGPKGDTGLPGFPGLKGEQGEKGEPGAILTEDIPLERLMGKKGEPGMHGAPGPMGPKGPPGHKGEFGLPGRPGRPGLNGLKGTKGDPGVIMQGPPGLPGPPGPPGPPGAVINIKGAIFPIPVRPHCKMPVDTAHPGSPELITFHGVKGEKGSWGLPGSKGEKGDQGAQGPPGPPLDLAYLRHFLNNLKGENGDKGFKGEKGEKGDINGSFLMSGPPGLPGNPGPAGQKGETVVGPQGPPGAPGLPGPPGFGRPGDPGPPGPPGPPGPPAILGAAVALPGPPGPPGQPGLPGSRNLVTAFSNMDDMLQKAHLVIEGTFIYLRDSTEFFIRVRDGWKKLQLGELIPIPADSPPPPALSSNPHQLLPPPNPISSANYEKPALHLAALNMPFSGDIRADFQCFKQARAAGLLSTYRAFLSSHLQDLSTIVRKAERYSLPIVNLKGQVLFNNWDSIFSGHGGQFNMHIPIYSFDGRDIMTDPSWPQKVIWHGSSPHGVRLVDNYCEAWRTADTAVTGLASPLSTGKILDQKAYSCANRLIVLCIENSFMTDARK
# B5: Folate receptor gamma (protein, UniProt P41439 23-245, looked up)
# Folate receptor gamma: QPRSARARTDLLNVCMNAKHHKTQPSPEDELYGQCSPWKKNACCTASTSQELHKDTSRLYNFNWDHCGKMEPTCKRHFIQDSCLYECSPNLGPWIRQVNQSWRKERILNVPLCKEDCERWWEDCRTSYTCKSNWHKGWNWTSGINECPAGALCSTFESYFPTPAALCEGLWSHSFKVSNYSRGSGRCIQMWFDSAQGNPNEEVAKFYAAAMNAGAPSRGIIDS
# B6: Elongation factor 1-alpha 1 (protein, UniProt P68104 2-462, looked up)
# Elongation factor 1-alpha 1: GKEKTHINIVVIGHVDSGKSTTTGHLIYKCGGIDKRTIEKFEKEAAEMGKGSFKYAWVLDKLKAERERGITIDISLWKFETSKYYVTIIDAPGHRDFIKNMITGTSQADCAVLIVAAGVGEFEAGISKNGQTREHALLAYTLGVKQLIVGVNKMDSTEPPYSQKRYEEIVKEVSTYIKKIGYNPDTVAFVPISGWNGDNMLEPSANMPWFKGWKVTRKDGNASGTTLLEALDCILPPTRPTDKPLRLPLQDVYKIGGIGTVPVGRVETGVLKPGMVVTFAPVNVTTEVKSVEMHHEALSEALPGDNVGFNVKNVSVKDVRRGNVAGDSKNDPPMEAAGFTAQVIILNHPGQISAGYAPVLDCHTAHIACKFAELKEKIDRRSGKKLEDGPKFLKSGDAAIVDMVPGKPMCVESFSDYPPLGRFAVRDMRQTVAVGVIKAVDKKAAGAGKVTKSAQKAQKAK
# B7: Gamma-glutamyl hydrolase (protein, UniProt Q92820 25-318, looked up)
# Gamma-glutamyl hydrolase: RPHGDTAKKPIIGILMQKCRNKVMKNYGRYYIAASYVKYLESAGARVVPVRLDLTEKDYEILFKSINGILFPGGSVDLRRSDYAKVAKIFYNLSIQSFDDGDYFPVWGTCLGFEELSLLISGECLLTATDTVDVAMPLNFTGGQLHSRMFQNFPTELLLSLAVEPLTANFHKWSLSVKNFTMNEKLKKFFNVLTTNTDGKIEFISTMEGYKYPVYGVQWHPEKAPYEWKNLDGISHAPNAVKTAFYLAEFFVNEARKNNHHFKSESEEEKALIYQFSPIYTGNISSFQQCYIFD
# B8: Heat shock protein beta-11 (protein, UniProt Q9Y547 1-144, looked up)
# Intraflagellar transport …: MRKIDLCLSSEGSEVILATSSDEKHPPENIIDGNPETFWTTTGMFPQEFIICFHKHVRIERLVIQSYFVQTLKIEKSTSKEPVDFEQWIEKDLVHTEGQLQNEEIVAHDGSATYLRFIIVSAFDHFASVHSVSAEGTVVSNLSS
# B9: Tetratricopeptide repeat protein 17 (protein, UniProt Q96AE7 1-1141, looked up)
# Tetratricopeptide repeat …: MAAAVGVRGRYELPPCSGPGWLLSLSALLSVAARGAFATTHWVVTEDGKIQQQVDSPMNLKHPHDLVILMRQEATVNYLKELEKQLVAQKIHIEENEDRDTGLEQRHNKEDPDCIKAKVPLGDLDLYDGTYITLESKDISPEDYIDTESPVPPDPEQPDCTKILELPYSIHAFQHLRGVQERVNLSAPLLPKEDPIFTYLSKRLGRSIDDIGHLIHEGLQKNTSSWVLYNMASFYWRIKNEPYQVVECAMRALHFSSRHNKDIALVNLANVLHRAHFSADAAVVVHAALDDSDFFTSYYTLGNIYAMLGEYNHSVLCYDHALQARPGFEQAIKRKHAVLCQQKLEQKLEAQHRSLQRTLNELKEYQKQHDHYLRQQEILEKHKLIQEEQILRNIIHETQMAKEAQLGNHQICRLVNQQHSLHCQWDQPVRYHRGDIFENVDYVQFGEDSSTSSMMSVNFDVQSNQSDINDSVKSSPVAHSILWIWGRDSDAYRDKQHILWPKRADCTESYPRVPVGGELPTYFLPPENKGLRIHELSSDDYSTEEEAQTPDCSITDFRKSHTLSYLVKELEVRMDLKAKMPDDHARKILLSRINNYTIPEEEIGSFLFHAINKPNAPIWLILNEAGLYWRAVGNSTFAIACLQRALNLAPLQYQDVPLVNLANLLIHYGLHLDATKLLLQALAINSSEPLTFLSLGNAYLALKNISGALEAFRQALKLTTKCPECENSLKLIRCMQFYPFLYNITSSVCSGTVVEESNGSDEMENSDETKMSEEILALVDEFQQAWPLEGFGGALEMKGRRLDLQGIRVLKKGPQDGVARSSCYGDCRSEDDEATEWITFQVKRVKKPKGDHKKTPGKKVETGQIENGHRYQANLEITGPKVASPGPQGKKRDYQRLGWPSPDECLKLRWVELTAIVSTWLAVSSKNIDITEHIDFATPIQQPAMEPLCNGNLPTSMHTLDHLHGVSNRASLHYTGESQLTEVLQNLGKDQYPQQSLEQIGTRIAKVLEKNQTSWVLSSMAALYWRVKGQGKKAIDCLRQALHYAPHQMKDVPLISLANILHNAKLWNDAVIVATMAVEIAPHFAVNHFTLGNVYVAMEEFEKALVWYESTLKLQPEFVPAKNRIQTIQCHLMLKKGRRSP
# Assay: RRT study: LC-MS/MS urinary proteomics, AKI after cardiac surgery, RRT vs No RRT
# Parameters: species or system human
# Details: direction of differential abundance, patients who did vs did not require RRT/dialysis
row,Molecule,Up or Down
1,B1,Down
2,B2,Down
3,B3,Down

# Same assay, conditions: direction of urinary abundance, patients who did vs did not require RRT/dialysis
row,Molecule,Up or Down
1,B4,Up
2,B5,Up
3,B6,Up
4,B7,Up
5,B8,Up
6,B9,Up

# Same assay, conditions: patients who did vs did not require RRT/dialysis
row,Molecule,Mean Fold Change
1,B1,3.109
2,B2,2.181
3,B3,12.58
